Here are results for 54 compounds from PubChem BioAssay AID1487 (National Center for Advancing Translational Sciences (NCATS), 2009).

Several values for one entry are separate records, joined by “and”; a condition that tells them apart may be missing. Equal entries are not always repeated. This is one part of the list. Shown are side measurements of this screen, not its main read-out; they come without a call. Compounds called inactive in the main read-out are mostly missing here. Words in brackets tell the shape of the fitted curve; partial curves, single points and poor fits give uncertain potencies.

The nature of the test: qHTS Assay for Modulators of Lamin A Splicing. The conditions noted are these: HeLa LMNA splicing GFP/RFP minigene ratio, 48 h. In short, it runs like this:
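S3 HeLa cells stably expressing lamin A-EGFP splicing minigene plus DsRed2, 600 cells/well, 48 h compound exposure at 37C. Laser-scanning cytometry; analysed as GFP (500-530 nm)/RFP (575-640 nm) total intensity ratio; 0.5% DMSO vehicle.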
Background: In qHTS, concentration-response curves come from the screen itself.

Setting [1] is: measured here: RFP viability control channel.
Setting [2] is: measured here: GFP splicing reporter channel.

For `c1nc(NC2CCCC2)c2[nH]cnc2n1`, under setting [1], the half-maximal activity concentration (AC50) is 0.00794 µM [rising, full curve, poor fit].

Take `Cc1ccc(NC(=O)CSc2nc3c(cc2C#N)C(=O)CCC3)cc1S(=O)(=O)N(C)C`: the half-maximal activity concentration (AC50) under setting [1] is 22.4 µM [rising, partial curve].

`CC(C)(C)NC(=O)CCN(/N=C/c1ccc([N+](=O)[O-])o1)C1=NS(=O)(=O)c2ccccc21`: under setting [1], the half-maximal activity concentration (AC50) was 17.8 µM [rising, partial curve, poor fit].

In the case of `COC(=O)C1=C(C)N(Cc2ccco2)C(=O)N[C@@H]1c1ccccc1`, the AC50 under setting [1] is 0.501 µM [rising, single point].

Take `COc1ccc(CN(C(=O)Cn2nnc(-c3ccc(C)o3)n2)C(C(=O)NCC2CCCO2)c2ccco2)cc1` (stereo not drawn): under setting [1], the half-maximal activity concentration (AC50) is 0.282 µM [falling, full curve, poor fit].

`CCOC(=O)C1=C(C)N=C2c3ccccc3C(=O)C2C1c1ccc(Br)cc1` (stereo not drawn): the AC50 under setting [2] is 11.2 µM [falling, partial curve].

On to `Cc1cc(C)n(CC(=O)Nc2cc(F)ccc2F)c(=O)c1C#N`, for which, under setting [2], the AC50 is 25.1 µM [rising, single point].

Take `CCOC(=O)NC(c1ccc(C(C)C)cc1)C(Cl)(Cl)Cl` (stereo not drawn): the concentration at half-maximal activity (AC50) is, setting by setting: under setting [2], 15.8 µM [rising, partial curve, poor fit]; under setting [1], 15.8 µM [rising, partial curve].

As to `Cc1c(-c2ccc(Cl)cc2)oc(=O)c2c(N)n(-c3ccccc3)nc12`, the half-maximal activity concentration (AC50) is, setting by setting: under setting [2], 12.6 µM [rising, partial curve]; under setting [1], 8.91 µM [rising, partial curve].

With `CCOc1ccc(NC(=O)Cn2c(=O)cc(C)c3c(C)nn(C)c32)cc1`, under setting [1], the AC50 is 0.00282 µM [falling, full curve, poor fit].

Consider `CC[C@H](C)[C@H](N)C1=N[C@H](C(=O)N[C@@H](CC(C)C)C(=O)N[C@@H](CCC(=O)O)C(=O)N[C@@H](C(=O)N[C@H]2CCCCNC(=O)[C@@H](CC(N)=O)NC(=O)[C@@H](CC(=O)O)NC(=O)[C@@H](Cc3cnc[nH]3)NC(=O)[C@@H](Cc3ccccc3)NC(=O)[C@@H]([C@@H](C)CC)NC(=O)[C@@H](CCCN)NC2=O)[C@@H](C)CC)CS1`, for which, under setting [1], the half-maximal activity concentration (AC50) is 0.282 µM [falling, single point].

As to `COc1ccc(NC(=O)C2OC3OC(C)(C)OC3C3OC(C)(C)OC23)cc1` (stereo not drawn), the half-maximal activity concentration (AC50) under setting [2] is 0.251 µM [rising, full curve].

`O=C(Nc1ccc(F)cc1)c1cn(-c2ccccc2)nc1-c1ccncc1`: the AC50 under setting [1] is 22.4 µM [rising, single point].

With `Cc1ccccc1-c1ccc(Nc2ccc(C(=O)N3CCOCC3)cc2)nn1`, the AC50 under setting [2] is 0.891 µM [rising, full curve, poor fit].

As for `Cc1ccc(S(=O)(=O)c2c(Nc3ccc(C)c(C)c3)sc(C(=O)c3ccc4c(c3)OCO4)c2N)cc1`, the concentration at half-maximal activity (AC50) is 5.01 µM [rising, partial curve, poor fit] under setting [2] and 0.447 µM [rising, full curve] under setting [1].

`CCOc1ccc(/C=C/C(O)=C2/C(=O)N(C)C3(C)CC2c2ccccc2O3)cc1OC` (stereo not drawn): the half-maximal activity concentration (AC50) by setting is: under setting [2], 11.2 µM [falling, single point]; under setting [1], 7.08 µM [falling, partial curve, poor fit].

In the case of `COc1cc(C(=O)NCc2ccc(C)cc2)ccc1OC(F)F`, the concentration at half-maximal activity (AC50) under setting [2] is 28.2 µM [rising, single point].

In the case of `Cc1sc2nc3n(c(=O)c2c1C)Cc1ccccc1-3`, the concentration at half-maximal activity (AC50) under setting [2] is 0.0316 µM [rising, full curve, poor fit] and the AC50 under setting [1] was 0.0251 µM [rising, full curve, poor fit].

Consider `S=C1NC2(CCCCC2)Cc2ccccc21`, for which, under setting [1], the AC50 is 20 µM [rising, single point].

For the compound `COCCn1c(=NC(=O)/C=C/c2cccs2)sc2cc(NC(C)=O)ccc21`, the concentration at half-maximal activity (AC50) under setting [1] was 17.8 µM [rising, partial curve, poor fit].

As to `CCOC(=O)C1=C(C)N[C@@]2(O)c3ccccc3C(=O)[C@@]12O`, the AC50 was 0.02 µM [falling, full curve] under setting [2] and 0.02 µM [falling, full curve, poor fit] under setting [1].

Consider `CC(=O)NC(NC(=S)Nc1ccc(N=Nc2ccccc2)cc1)C(Cl)(Cl)Cl` (stereo not drawn), for which the AC50 was 35.5 µM [falling, single point] under setting [2] and 35.5 µM [falling, single point] under setting [1].

`Cc1cccc(N2C(=O)CN(Cc3sccc3C)C2=S)c1`: the half-maximal activity concentration (AC50) under setting [1] is 12.6 µM [rising, single point].

With `C/C(=N\Nc1ccc(C(F)(F)F)cn1)c1ccncc1`, the AC50 under setting [1] is 1.12 µM [rising, full curve].

As for `Cc1c(Cc2ccccc2)sc(/N=C/c2c(O)ccc3ccccc23)c1C(N)=O`, the AC50 runs as follows: under setting [2], 20 µM [rising, single point]; under setting [1], 12.6 µM [rising, partial curve].

In the case of `COc1ccccc1N(CC(O)COc1c(C)cc(C)cc1C)S(=O)(=O)c1ccccc1` (stereo not drawn), the AC50 by setting is: under setting [2], 12.6 µM [rising, single point]; under setting [1], 22.4 µM [rising, single point].

`CC12CC3CC(C)(C1)CC(N)(C3)C2`: the concentration at half-maximal activity (AC50) by setting is: under setting [2], 0.00224 µM [falling, full curve, poor fit]; under setting [1], 14.1 µM [rising, single point] and 2.24 nM [falling, full curve, poor fit].

In the case of `COc1ccc(S(=O)(=O)Nc2ccc(F)c(Cl)c2)cc1OC`, the concentration at half-maximal activity (AC50) under setting [2] was 12.6 µM [rising, single point] and the AC50 under setting [1] was 15.8 µM [rising, single point].

Take `Cc1nc(SCC(=O)Nc2ccc(OCc3ccccc3)cc2)n[nH]1`: the concentration at half-maximal activity (AC50) was 35.5 µM [falling, partial curve, poor fit] under setting [2] and 35.5 µM [falling, single point] under setting [1].

In the case of `Cc1cc(C)n2nc(-c3ccsc3-n3c(C)ccc3C)cc2n1`, under setting [2], the AC50 was 17.8 µM [rising, single point].

For the compound `CC(=O)Nc1ccc(Nc2c3ccccc3nc3ccccc23)cc1`, the AC50 under setting [2] was 0.891 µM [falling, partial curve].

On to `CCN(CC)S(=O)(=O)c1ccc(Cl)c(C(=O)N2CCc3ccccc32)c1`, for which the half-maximal activity concentration (AC50) under setting [1] is 12.6 µM [rising, partial curve].

As to `OCCCN=c1cc(-c2ccccc2)oc2ccc(Cl)cc12`, the AC50 under setting [1] is 35.5 µM [rising, single point].

Turning to `C/C(=N\Nc1nc2ccccc2[nH]1)c1ccc(Cl)s1`, under setting [1], the half-maximal activity concentration (AC50) is 8.91 µM [rising, partial curve, poor fit].

Regarding `CC1CCN(S(=O)(=O)c2cc(C(=O)NCc3ccc(N(C)C)cc3)n(C)c2)CC1`, under setting [2], the concentration at half-maximal activity (AC50) was 0.0126 µM [falling, full curve, poor fit].

Take `COc1cc2ncnc(NCc3cccs3)c2cc1OC`: the AC50 under setting [1] was 12.6 µM [falling, partial curve].

On to `CSc1cccc(NC(=O)CN(c2cc(C)ccc2C)S(C)(=O)=O)c1`, for which, under setting [1], the AC50 is 28.2 µM [rising, single point].

For the compound `CCOC(=O)Nc1nnc(Cc2ccc(Cl)c(Cl)c2)s1`, under setting [2], the AC50 is 35.5 µM [rising, single point].

Consider `COc1ccc(C2=C(C)C(=O)N(Cc3ccc(C(=O)Nc4ccc(F)cc4C)cc3)S2(=O)=O)cc1`, for which the concentration at half-maximal activity (AC50) under setting [1] was 0.282 µM [rising, full curve].

On to `CCCSc1nc(-n2ncc(C#N)c2N)c2c3c(sc2n1)CCC(C)C3` (stereo not drawn), for which the AC50 by setting is: under setting [2], 12.6 µM [rising, single point]; under setting [1], 14.1 µM [rising, single point].

Consider `O=C1SCC(c2ccccc2)=NN1Cc1ccccc1`, for which, under setting [1], the AC50 is 20 µM [rising, single point].

In the case of `CCn1cc(C(=O)NCc2ccco2)c(=O)c2cc(S(=O)(=O)N3CCCCCC3)ccc21`, the half-maximal activity concentration (AC50) reads like this: under setting [2], 11.2 µM [rising, partial curve, poor fit]; under setting [1], 14.1 µM [rising, partial curve].

As to `CCOC(=O)c1cc(-c2ccccc2)n(CC(=O)NCc2ccc(C)cc2)c1C`, the concentration at half-maximal activity (AC50) is, setting by setting: under setting [2], 0.282 µM [falling, single point]; under setting [1], 20 µM [falling, single point].

As for `Cc1nn(Cc2ccc(Cl)cc2)c(C)c1NC(=O)CCCn1nc([N+](=O)[O-])c(Cl)c1C`, under setting [1], the half-maximal activity concentration (AC50) is 22.4 µM [rising, partial curve, poor fit].

Turning to `COc1ccc2c(c1)CCN=C2Cc1ccc(OC)c(OC)c1`, the AC50 under setting [1] was 14.1 µM [rising, single point].

On to `O=[N+]([O-])c1cccc(S(=O)(=O)N2CCCC2)c1`, for which the concentration at half-maximal activity (AC50) under setting [1] is 4.47 µM [rising, partial curve].

Take `O=C(CSc1nc2ccccc2[nH]1)N1c2ccccc2Sc2ccccc21`: under setting [1], the half-maximal activity concentration (AC50) was 15.8 µM [rising, single point].

For `Cc1ccccc1NS(=O)(=O)c1ccc(OCC(=O)NCc2cccnc2)cc1`, under setting [1], the AC50 is 25.1 µM [rising, partial curve, poor fit].

Regarding `O=C(Nc1nnc(-c2ccco2)o1)c1ccc(Cl)cc1`, under setting [1], the AC50 is 2.82 µM [rising, single point].

In the case of `COc1ccc(NC(=O)c2ccccc2C(=O)N2CCCCC2)cc1`, the half-maximal activity concentration (AC50) reads like this: under setting [2], 35.5 µM [rising, partial curve, poor fit]; under setting [1], 35.5 µM [rising, single point].

Take `COc1ccc(CCCC(=O)N/N=C/c2cccc(OC)c2O)cc1C`: the concentration at half-maximal activity (AC50) runs as follows: under setting [2], 12.6 µM [rising, partial curve]; under setting [1], 14.1 µM [rising, partial curve].

For `c1ccc(CN(Cc2cccs2)C(c2cccs2)c2nnnn2C2CCCC2)cc1` (stereo not drawn), the AC50 under setting [1] was 20 µM [rising, single point].

Regarding `O=NCc1ccc([N+](=O)[O-])o1`, the concentration at half-maximal activity (AC50) runs as follows: under setting [2], 0.0891 µM [falling, partial curve]; under setting [1], 0.794 µM [falling, partial curve, poor fit].

On to `O=[N+]([O-])c1cccc(-c2nnc(CNC3CC3)o2)c1`, for which the AC50 reads like this: under setting [2], 0.00501 µM [falling, full curve, poor fit]; under setting [1], 3.16 µM [falling, partial curve, poor fit].

One may read the AC50 as the concentration giving half of the maximal activity seen.
